Patent publication EP1988102A1
No constants are given. Whether binding was seen depends on the method and setting. Some entries that bind do so weakly or less than the wild type.

By UniProt entry, the sequences of proteins in these tests, tags left out. Residues count along the entry.
UniProt P16234, residues 24-524: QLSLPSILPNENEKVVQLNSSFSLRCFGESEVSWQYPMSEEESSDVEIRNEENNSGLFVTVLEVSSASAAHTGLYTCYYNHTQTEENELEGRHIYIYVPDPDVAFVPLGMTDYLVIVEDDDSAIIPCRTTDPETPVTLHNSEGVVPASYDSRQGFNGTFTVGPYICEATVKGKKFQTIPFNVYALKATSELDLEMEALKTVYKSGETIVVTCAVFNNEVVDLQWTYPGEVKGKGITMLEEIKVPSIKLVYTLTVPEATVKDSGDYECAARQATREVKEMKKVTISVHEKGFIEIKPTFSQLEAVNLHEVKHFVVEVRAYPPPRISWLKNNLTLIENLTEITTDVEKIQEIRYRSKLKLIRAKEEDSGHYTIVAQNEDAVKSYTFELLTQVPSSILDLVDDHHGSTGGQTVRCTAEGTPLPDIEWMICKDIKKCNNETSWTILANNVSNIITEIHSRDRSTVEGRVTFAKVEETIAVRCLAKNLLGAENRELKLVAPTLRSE

Target: PDGF receptor α (R&D Systems) (UniProt P16234)
Test: 125I-zvegf3 (10 ng/mL) bound to cultured cells on ice, with or without unlabelled zvegf3, VEGF, PDGF-BB, PDGF receptor α or PDGF receptor β-Fc; gamma counting

Question: With “recombinant zvegf3 growth factor domain protein (from UniProt Q9NRA1 235-345) (ligand)” as the substance, how does the binding read?
Answer: binds
